Measured data: PubChem BioAssay AID652272 (Drosophila RNAi Screening Center, 2013)
Aim: 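Genome-wide knock-down search for components of Hedgehog signalling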 (primary screen). Cells: Drosophila clone 8 (Cl8) cells. Reagent: long dsRNA against Drosophila genes. Measurement: 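Plate reader light from a firefly reporter under a ptc promoter fragment that responds to Hedgehog, with Renilla light as transfection reference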. Direction: firefly Hh reporter signal: higher = more ptc reporter light; Renilla reference signal: higher = more Renilla control light. Active means: 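Called a hit if the two-replicate mean z-score lies below -2 or above +3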. Meaning of the calls: active = hit: reporter lowered or raised; inactive = not a hit.
The screen tested about 21,000 reagents; below is an unselected part of those with a known target gene and a result. Over the whole deposit, 503 (2.4%) got an active call. 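Raw plate light values, not normalised; calls rest on replicate z-scores that were not deposited; hits include reporter decreases as well as increases.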 A number with no mark means an inactive call. Names joined by + are all predicted targets of the reagent. Not stated in the record: the amount of reagent, the time to read-out.

Mmp2 (GeneID 35997) [DRSC06698] → firefly Hh reporter signal, replicate 1: 1.38e5; firefly Hh reporter signal, replicate 2: 76208; Renilla reference signal, replicate 1: 3353; Renilla reference signal, replicate 2: 6624
CG13282 (GeneID 35019) [DRSC02254] → firefly Hh reporter signal, replicate 1: 84055; firefly Hh reporter signal, replicate 2: 50551; Renilla reference signal, replicate 1: 2508; Renilla reference signal, replicate 2: 5143
Brms1 (GeneID 32243) [DRSC19896] → firefly Hh reporter signal, replicate 1: 47152; firefly Hh reporter signal, replicate 2: 1.62e5; Renilla reference signal, replicate 1: 1482; Renilla reference signal, replicate 2: 6315
bcn92 (GeneID 31186) [DRSC18741] → firefly Hh reporter signal, replicate 1: 1.15e5; firefly Hh reporter signal, replicate 2: 3.16e5; Renilla reference signal, replicate 1: 4440; Renilla reference signal, replicate 2: 11116
lin-52 (GeneID 31499) [DRSC18106] → firefly Hh reporter signal, replicate 1: 1.03e5; firefly Hh reporter signal, replicate 2: 1.78e5; Renilla reference signal, replicate 1: 4260; Renilla reference signal, replicate 2: 7800
Zw10 (GeneID 47874) [DRSC18793] → firefly Hh reporter signal, replicate 1: 93553; firefly Hh reporter signal, replicate 2: 88812; Renilla reference signal, replicate 1: 2677; Renilla reference signal, replicate 2: 3575
Sirt4 (GeneID 31480) [DRSC18290] → firefly Hh reporter signal, replicate 1: 72093; firefly Hh reporter signal, replicate 2: 1.44e5; Renilla reference signal, replicate 1: 2380; Renilla reference signal, replicate 2: 5752
Rsph1 (GeneID 34712) [DRSC02864] → firefly Hh reporter signal, replicate 1: 1.12e5; firefly Hh reporter signal, replicate 2: 61936; Renilla reference signal, replicate 1: 2641; Renilla reference signal, replicate 2: 5089
Srrm1 (GeneID 39483) [DRSC09835] → firefly Hh reporter signal, replicate 1: 48587; firefly Hh reporter signal, replicate 2: 45634; firefly Hh reporter signal, replicate 3: 79029; Renilla reference signal, replicate 1: 4475; Renilla reference signal, replicate 2: 5587
CG15548 (GeneID 43667) [DRSC15086] → firefly Hh reporter signal, replicate 1: 92373; firefly Hh reporter signal, replicate 2: 1.16e5; Renilla reference signal, replicate 1: 3168; Renilla reference signal, replicate 2: 3209
Grik (GeneID 42476) [DRSC15846] → firefly Hh reporter signal, replicate 1: 88856; firefly Hh reporter signal, replicate 2: 1.02e5; Renilla reference signal, replicate 1: 5014; Renilla reference signal, replicate 2: 4076
Grik (GeneID 42476) [DRSC15847] → firefly Hh reporter signal, replicate 1: 5.75e5; firefly Hh reporter signal, replicate 2: 1.05e5; Renilla reference signal, replicate 1: 28917; Renilla reference signal, replicate 2: 2425
CG32299 + CG32298 [DRSC07980] → firefly Hh reporter signal, replicate 1: 91819; firefly Hh reporter signal, replicate 2: 1.47e5; Renilla reference signal, replicate 1: 3280; Renilla reference signal, replicate 2: 5994
rad50 (GeneID 37564) [DRSC04523] → firefly Hh reporter signal, replicate 1: 53521; firefly Hh reporter signal, replicate 2: 53573; Renilla reference signal, replicate 1: 2295; Renilla reference signal, replicate 2: 2112
didum (GeneID 35680) [DRSC07603] → firefly Hh reporter signal, replicate 1: 72153; firefly Hh reporter signal, replicate 2: 50675; Renilla reference signal, replicate 1: 1629; Renilla reference signal, replicate 2: 4192
CG12012 (GeneID 38422) [DRSC08220] → firefly Hh reporter signal, replicate 1: 74437; firefly Hh reporter signal, replicate 2: 52861; Renilla reference signal, replicate 1: 2324; Renilla reference signal, replicate 2: 3916

Next part, starting with the last 3 of the part before.
rad50 (GeneID 37564) [DRSC04523] → firefly Hh reporter signal, replicate 1: 53521; firefly Hh reporter signal, replicate 2: 53573; Renilla reference signal, replicate 1: 2295; Renilla reference signal, replicate 2: 2112
didum (GeneID 35680) [DRSC07603] → firefly Hh reporter signal, replicate 1: 72153; firefly Hh reporter signal, replicate 2: 50675; Renilla reference signal, replicate 1: 1629; Renilla reference signal, replicate 2: 4192
CG12012 (GeneID 38422) [DRSC08220] → firefly Hh reporter signal, replicate 1: 74437; firefly Hh reporter signal, replicate 2: 52861; Renilla reference signal, replicate 1: 2324; Renilla reference signal, replicate 2: 3916
kat-60L1 (GeneID 40715) [DRSC12184] → firefly Hh reporter signal, replicate 1: 1.82e5; firefly Hh reporter signal, replicate 2: 1.25e5; Renilla reference signal, replicate 1: 7096; Renilla reference signal, replicate 2: 5175
Ssu72 (GeneID 32973) [DRSC19572] → firefly Hh reporter signal, replicate 1: 78075; firefly Hh reporter signal, replicate 2: 2.53e5; Renilla reference signal, replicate 1: 3432; Renilla reference signal, replicate 2: 12779
Pk34A (GeneID 34705) [DRSC03398] → firefly Hh reporter signal, replicate 1: 1.57e5; firefly Hh reporter signal, replicate 2: 58443; Renilla reference signal, replicate 1: 3888; Renilla reference signal, replicate 2: 5608
CG9503 (GeneID 32424) [DRSC20186] → firefly Hh reporter signal, replicate 1: 1.25e5; firefly Hh reporter signal, replicate 2: 3.27e5; Renilla reference signal, replicate 1: 3122; Renilla reference signal, replicate 2: 13335
CG31437 (GeneID 318735) [DRSC13711] → firefly Hh reporter signal, replicate 1: 43810; firefly Hh reporter signal, replicate 2: 5.16e5; firefly Hh reporter signal, replicate 3: 2.21e5; Renilla reference signal, replicate 1: 12208; Renilla reference signal, replicate 2: 3929
Manf (GeneID 41983) [DRSC14091] → firefly Hh reporter signal, replicate 1: 1.22e5; firefly Hh reporter signal, replicate 2: 1.06e5; Renilla reference signal, replicate 1: 5168; Renilla reference signal, replicate 2: 4497
CG4743 (GeneID 43101) [DRSC15636] → firefly Hh reporter signal, replicate 1: 4.83e5; firefly Hh reporter signal, replicate 2: 1.03e5; Renilla reference signal, replicate 1: 24553; Renilla reference signal, replicate 2: 3169
CG32196 (GeneID 317908) [DRSC09548] → firefly Hh reporter signal, replicate 1: 1.67e5; Renilla reference signal, replicate 1: 3553
l(2)efl (GeneID 37744) [DRSC04698] → firefly Hh reporter signal, replicate 1: 1.20e5; firefly Hh reporter signal, replicate 2: 63109; Renilla reference signal, replicate 1: 4672; Renilla reference signal, replicate 2: 2550
Krn (GeneID 326198) [DRSC11202] → firefly Hh reporter signal, replicate 1: 80592; Renilla reference signal, replicate 1: 3884; Renilla reference signal, replicate 2: 2141
Tcs3 (GeneID 39811) [DRSC10461] → firefly Hh reporter signal, replicate 1: 1.03e5; Renilla reference signal, replicate 1: 4445; Renilla reference signal, replicate 2: 3170
